Experimental findings from patent US8664276B2, “Stilbene analogs and methods of treating cancer” (University of Kentucky Research Foundation, priority 2011, dated 2014) are described below.

This series relates to LS174 cells. The series can be described thus: Confocal fluorescence localization of compound in LS174 cells. The settings on record: 10 μM. It is filed as cell-based.

With `CCN(CC)c1ccc(/C=C/c2c(F)cccc2F)cc1` [4s, (E)-4-(2,6-Difluorostyryl)-N,N-diethylaniline], under “2 h”, the “subcellular localization of compound at 2 h” value was “localized throughout the nucleus and cytoplasm”. In addition, the “nuclear levels of compound after 12 h” value (after 12 h) is “decreased”.
